Reference: publication PMC6098150
These are yes or no findings as the source states them, for the method shown. In cells and extracts the contact can be indirect. A result given as binding can be weak or reduced; the word gives no strength.

Sequences of proteins named here, by UniProt entry; tags and fusion partners are left off. A change or cut given only in a name is not applied to a line headed by its entry.
UniProt F6RU57: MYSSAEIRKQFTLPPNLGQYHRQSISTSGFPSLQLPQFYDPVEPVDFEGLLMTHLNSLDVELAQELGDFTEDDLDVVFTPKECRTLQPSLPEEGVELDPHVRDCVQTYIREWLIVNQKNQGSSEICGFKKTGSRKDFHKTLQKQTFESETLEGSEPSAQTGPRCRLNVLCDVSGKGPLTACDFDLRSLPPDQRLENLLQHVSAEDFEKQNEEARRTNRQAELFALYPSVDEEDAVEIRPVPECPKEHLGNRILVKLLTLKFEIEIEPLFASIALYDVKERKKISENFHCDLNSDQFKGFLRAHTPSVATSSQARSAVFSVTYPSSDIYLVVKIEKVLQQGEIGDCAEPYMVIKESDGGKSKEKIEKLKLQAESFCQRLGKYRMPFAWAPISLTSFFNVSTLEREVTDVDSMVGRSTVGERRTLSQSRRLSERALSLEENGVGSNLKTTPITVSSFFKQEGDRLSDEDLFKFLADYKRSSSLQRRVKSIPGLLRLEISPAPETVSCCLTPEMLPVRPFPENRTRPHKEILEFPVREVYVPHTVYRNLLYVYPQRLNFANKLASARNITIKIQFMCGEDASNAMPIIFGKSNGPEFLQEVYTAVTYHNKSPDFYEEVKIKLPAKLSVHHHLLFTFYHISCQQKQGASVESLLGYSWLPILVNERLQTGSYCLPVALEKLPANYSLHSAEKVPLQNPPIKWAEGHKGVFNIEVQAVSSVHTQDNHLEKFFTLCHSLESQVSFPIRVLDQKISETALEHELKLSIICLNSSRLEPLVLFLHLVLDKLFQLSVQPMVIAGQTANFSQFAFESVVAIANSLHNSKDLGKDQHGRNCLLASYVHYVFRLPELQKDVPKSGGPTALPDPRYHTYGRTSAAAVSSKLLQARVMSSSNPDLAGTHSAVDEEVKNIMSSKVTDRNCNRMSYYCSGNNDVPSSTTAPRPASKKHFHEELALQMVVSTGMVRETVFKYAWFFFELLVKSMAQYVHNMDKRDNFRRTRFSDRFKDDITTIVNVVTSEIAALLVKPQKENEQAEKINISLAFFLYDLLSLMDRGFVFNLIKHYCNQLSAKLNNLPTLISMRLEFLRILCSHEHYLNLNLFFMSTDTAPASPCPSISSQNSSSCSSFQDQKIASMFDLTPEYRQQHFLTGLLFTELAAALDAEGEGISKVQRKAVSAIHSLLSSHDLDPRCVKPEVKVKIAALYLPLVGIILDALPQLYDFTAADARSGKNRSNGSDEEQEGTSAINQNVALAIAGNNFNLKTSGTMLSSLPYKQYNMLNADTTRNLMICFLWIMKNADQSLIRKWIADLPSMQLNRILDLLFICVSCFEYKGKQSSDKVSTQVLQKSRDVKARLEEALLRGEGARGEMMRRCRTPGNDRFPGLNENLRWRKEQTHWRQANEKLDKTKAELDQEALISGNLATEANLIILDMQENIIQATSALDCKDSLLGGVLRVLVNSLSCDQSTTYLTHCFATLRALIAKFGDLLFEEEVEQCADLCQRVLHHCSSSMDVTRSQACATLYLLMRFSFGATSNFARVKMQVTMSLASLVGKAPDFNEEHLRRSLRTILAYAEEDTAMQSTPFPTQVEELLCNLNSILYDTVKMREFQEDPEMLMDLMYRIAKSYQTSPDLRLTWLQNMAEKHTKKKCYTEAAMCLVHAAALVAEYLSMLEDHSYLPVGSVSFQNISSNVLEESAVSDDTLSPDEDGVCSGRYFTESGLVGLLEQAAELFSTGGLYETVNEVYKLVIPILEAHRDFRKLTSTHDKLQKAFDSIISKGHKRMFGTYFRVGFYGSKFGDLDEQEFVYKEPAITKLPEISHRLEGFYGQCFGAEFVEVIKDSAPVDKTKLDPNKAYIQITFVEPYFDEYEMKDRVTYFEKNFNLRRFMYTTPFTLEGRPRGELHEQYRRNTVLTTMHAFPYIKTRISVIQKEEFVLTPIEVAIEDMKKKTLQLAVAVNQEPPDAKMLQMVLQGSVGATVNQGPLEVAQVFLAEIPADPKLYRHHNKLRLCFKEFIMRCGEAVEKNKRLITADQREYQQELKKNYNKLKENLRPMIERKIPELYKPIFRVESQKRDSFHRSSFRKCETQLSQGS
UniProt F6UVF8: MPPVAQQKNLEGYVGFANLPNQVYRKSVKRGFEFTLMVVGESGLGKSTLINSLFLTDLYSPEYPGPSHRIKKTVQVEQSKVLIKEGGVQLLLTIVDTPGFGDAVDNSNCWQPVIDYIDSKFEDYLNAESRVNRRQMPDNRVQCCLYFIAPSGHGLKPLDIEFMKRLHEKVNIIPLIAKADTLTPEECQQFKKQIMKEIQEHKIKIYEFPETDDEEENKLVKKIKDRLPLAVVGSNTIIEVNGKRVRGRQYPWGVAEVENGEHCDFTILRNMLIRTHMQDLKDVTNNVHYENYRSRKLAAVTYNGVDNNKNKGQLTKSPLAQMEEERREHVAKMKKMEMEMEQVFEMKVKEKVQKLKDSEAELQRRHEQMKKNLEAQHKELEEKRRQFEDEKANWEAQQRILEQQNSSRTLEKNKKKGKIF

Columns and labels:
[1] = target: Dedicator of cytokinesis 8 (horse (endogenous in equine PBL)) (UniProt F6RU57); assay: co-IP; immunoprecipitation of endogenous septin 7, DOCK8, ILK or MALT1 from equine PBL lysate on Protein G Sepharose; TBS, 2% CHAPS; overnight at 4 °C; western blot
[2] = target: Septin 7 (horse (endogenous in equine PBL)) (UniProt F6UVF8); assay: as above

Substance	binding [1]	binding [2]
Septin 7 (from UniProt F6UVF8)	binds	
Dedicator of cytokinesis 8 (from UniProt F6RU57)		binds
